The text below walks through data of publication PMC9456514, “Three-Dimensional Envelope and Subunit Interactions of the Plastid-Encoded RNA Polymerase from Sinapis alba” (International Journal of Molecular Sciences, 2022).

Test [1] concerns the target T1, β’ subunit of the plastid-encoded RNA polymerase (SaRpoC1) (Sinapis alba (endogenous in cotyledon chloroplasts)) (UniProt P46819).
T1 sequence: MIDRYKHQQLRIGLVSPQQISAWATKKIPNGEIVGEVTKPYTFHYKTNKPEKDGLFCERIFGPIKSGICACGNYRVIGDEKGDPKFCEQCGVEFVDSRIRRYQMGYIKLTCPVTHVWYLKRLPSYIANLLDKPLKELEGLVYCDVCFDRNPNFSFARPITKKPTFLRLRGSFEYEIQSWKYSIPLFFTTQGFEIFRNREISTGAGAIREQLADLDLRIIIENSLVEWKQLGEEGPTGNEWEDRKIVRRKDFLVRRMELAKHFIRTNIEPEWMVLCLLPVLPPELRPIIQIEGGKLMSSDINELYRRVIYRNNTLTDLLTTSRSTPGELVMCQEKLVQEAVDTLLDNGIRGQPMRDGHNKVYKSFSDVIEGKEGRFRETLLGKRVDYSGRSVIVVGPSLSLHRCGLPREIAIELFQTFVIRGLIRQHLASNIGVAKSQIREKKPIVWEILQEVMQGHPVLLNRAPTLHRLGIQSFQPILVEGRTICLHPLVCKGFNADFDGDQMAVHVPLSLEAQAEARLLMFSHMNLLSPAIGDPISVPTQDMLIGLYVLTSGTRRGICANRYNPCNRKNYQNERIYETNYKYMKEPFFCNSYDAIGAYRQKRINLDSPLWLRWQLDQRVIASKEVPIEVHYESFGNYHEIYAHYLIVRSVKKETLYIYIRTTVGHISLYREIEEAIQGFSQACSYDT
The test is described as follows: cross-linking; PEP-enriched fraction from two independent purifications (replicates 2 and 3), a few micrograms, 100 µM DSBU, 1 h at room temperature, HEPES buffer pH 7.8; trypsin; nanoLC-MS/MS; MeroX 2.0, FDR cut-off 1%, minimum score 30; the partners were together in the native complex fraction.

The target of test [2] is PAP5/PTAC12 (Sinapis alba (endogenous in cotyledon chloroplasts)). The description is as above.

Results are given in words; binding and its absence hold for the method and conditions named. In cells and extracts the contact can be indirect. Binding can be weak; no strength is given.

Take PAP5/PTAC12: in test [1], the binding result is listed as “binds”.

B1: α subunit of the plastid-encoded RNA polymerase (SaRpoA) (natural protein, UniProt Q9XQN8 1-327, looked up)
chain: MVREKVKVSTRTLQWKCVESRRDSKRLYYGRFILSPLMKGQADTIGIAMARALLGEIEGTCITRAKSENIPHDYSNIVGIQESVHEILMNLNEIVLKSNLYGTRNPFICVQGPGYITARDIILPPSVEIVDNTQHIATLTEPINLCIGLKIERNRGYSLKMSNNFEDRSYPIDAVFMPVQNANHSIHSYGNGNEKQEILFIEIWTNGSLTPKEALYEASRNLINLFIPFLHVEEETFYLENNQHQVTLPVFPFHNKLVNLRQKKKELAFQYIFIDQLELPPRIYNCLKKSNIHTLLDLLNNSQEDLIKMEHFHIEDVKKLLDILEKK
notes: RNA polymerase α subunit, product of the plastid gene rpoA, Sinapis alba
Regarding B1, the binding entry in test [2] was “binds”.
